Taken from: PubChem BioAssay AID1671195 (Yale University, 2021)

- Assay: 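Genes whose knockdown alters LDL uptake in liver cancer cells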 (primary screen)
- Cell system: human Huh7 hepatoma cells
- Reagent: siRNA pool against human genes, 18 nM
- Duration: about 2 to 2.5 days of knockdown, then 8 h LDL uptake
- Challenge: DiI-labelled LDL at 30 µg/ml for 8 h, in lipoprotein-deficient serum medium
- Measured: 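Per-cell DiI-LDL intensity by automated imaging; well means scaled to the plate median and given as a robust z-score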
- Reading the numbers: robust z-score: higher = more LDL uptake after knockdown
- Rule for the call: 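Active when two or more replicates show a robust z-score above 2 or below -2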
This is an unselected part of about 22,000 reagents. Of all reagents, about 1,510 (6.9%) are marked active. 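Active includes knockdowns raising or lowering LDL uptake; positive z-scores mean more uptake, negative mean less.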 The numbers tell different reagents against one gene apart. No sequences are given here.

no.	target gene	reagent no.	robust z-score, replicate 1	robust z-score, replicate 2	robust z-score, replicate 3	Outcome
1	CYP11B1 (GeneID 1584)	1	0.932	0.869	0.395	inactive
2	CENPX (GeneID 201254)	1	4.86	3.22	3	active
3	DEFB134 (GeneID 613211)	1	1.14	1.34	0.983	inactive
4	LOC389099 (retired record) (GeneID 389099)	1	0.514	0.74	0.477	inactive
5	FLJ46284 (GeneID 441369)	1	1.09	0.926	1.21	inactive
6	AOC1 (GeneID 26)	1	-1.49	-1.46	-1.32	inactive
7	LILRA3 (GeneID 11026)	1	-0.445	-1.6	-0.908	inactive
8	DNM1DN11-7 (GeneID 440293)	1	0.194	-0.425	-0.239	inactive
9	AHI1-DT (GeneID 100131814)	1	-0.56	-1.09	-1.13	inactive
10	SPATA1 (GeneID 100505741)	1	3.12	3.09	3.25	active
11	CREB5 (GeneID 9586)	1	3.55	4.02	3.3	active
12	CREB5 (GeneID 9586)	2	0.573	2.08	1.59	inactive
13	RPL19 (GeneID 6143)	1	-1.21	-1.44	-0.706	inactive
14	ZNF649 (GeneID 65251)	1	-0.218	-0.169	0.227	inactive
15	PSMB4 (GeneID 5692)	1	0.602	0.232	0.621	inactive
16	ANKRD20A9P (GeneID 284232)	1	0.516	0.19	0.598	inactive
17	KLF2 (GeneID 10365)	1	0.0783	-0.00639	-0.162	inactive
18	AK8 (GeneID 158067)	1	-0.531	-0.478	-0.136	inactive
19	ELK3 (GeneID 2004)	1	0.341	1.06	0.256	inactive
20	MSL3 (GeneID 10943)	1	-0.0346	0.562	0.434	inactive
21	MCM10 (GeneID 55388)	1	-0.736	0.32	1.05	inactive
22	ADGRG4 (GeneID 139378)	1	-0.59	0.921	-0.0109	inactive
23	UNC13B (GeneID 10497)	1	-0.792	-0.886	-0.367	inactive
24	NGRN (GeneID 51335)	1	0.615	1.31	0.524	inactive
25	NGRN (GeneID 51335)	2	0.104	-0.145	0.645	inactive
26	CPNE7 (GeneID 27132)	1	-0.493	0.213	-1.34	inactive
27	CTNNB1 (GeneID 1499)	1	0.452	-0.0138	0.493	inactive
28	TEX21P (GeneID 441687)	1	-0.918	-0.839	-0.79	inactive
29	IGFL1 (GeneID 374918)	1	0.443	0.732	0.225	inactive
30	VN2R1P (GeneID 344760)	1	0.284	0.643	-0.00787	inactive
31	LOC285658 (retired record) (GeneID 285658)	1	-1.68	-1.33	-1.54	inactive
32	LOC389370 (retired record) (GeneID 389370)	1	-0.325	-0.129	-0.464	inactive
33	OR4B1 (GeneID 119765)	1	-1.69	-1.86	-1.17	inactive
34	ROR1 (GeneID 4919)	1	-0.626	-2.45	-1.47	inactive
35	ANKRD53 (GeneID 79998)	1	-0.228	0.338	0.162	inactive
36	GPX1 (GeneID 2876)	1	-1.16	-1.39	-0.89	inactive
37	OR2B2 (GeneID 81697)	1	-1.77	-1.7	-1.71	inactive
38	ZNF490 (GeneID 57474)	1	-1.33	-1.58	-0.862	inactive

As entered above.
Under “robust z-score, replicate 2”, TEX21P (GeneID 441687) has -0.839
Entry of MCM10 (GeneID 55388) in “robust z-score, replicate 1”: -0.736
For “robust z-score, replicate 3”, KLF2 (GeneID 10365) shows -0.162
AHI1-DT (GeneID 100131814), robust z-score, replicate 2 → -1.09
Result for MSL3 (GeneID 10943) under “robust z-score, replicate 3”: 0.434
Under “robust z-score, replicate 3”, NGRN (GeneID 51335) #1 has 0.524

Additional results follow:
no.	target gene	reagent no.	robust z-score, replicate 1	robust z-score, replicate 2	robust z-score, replicate 3	Outcome
39	NOTO (GeneID 344022)	1	-1.41	-0.194	-0.362	inactive
40	KRT222 (GeneID 125113)	1	0.6	0.209	0.308	inactive
41	MYB (GeneID 4602)	1	-0.686	-0.585	-0.475	inactive
42	TRIM56 (GeneID 81844)	1	-0.155	-0.318	-0.513	inactive
43	QARS1 (GeneID 5859)	1	-0.476	0.96	1.25	inactive
44	LOC441937 (retired record) (GeneID 441937)	1	-0.431	-0.593	-0.317	inactive
45	PPP1R3C (GeneID 5507)	1	1.58	0.861	1	inactive
46	RGMB (GeneID 285704)	1	-0.497	-0.412	-0.051	inactive
47	TACR2 (GeneID 6865)	1	-0.819	-1.59	-1.49	inactive
48	LOC440722 (retired record) (GeneID 440722)	1	-0.301	1.57	-0.182	inactive
49	CYMP-AS1 (GeneID 440602)	1	-0.0554	0.258	1.12	inactive
50	SPATA2L (GeneID 124044)	1	-1.34	0.122	0.175	inactive
51	TTC4 (GeneID 7268)	1	1.17	-0.97	-0.144	inactive
52	CYP27A1 (GeneID 1593)	1	-0.405	-0.688	-0.693	inactive
53	MT1X (GeneID 4501)	1	-0.048	-1.3	-0.608	inactive
54	ASB14 (GeneID 142686)	1	2.83	1.28	2.25	active
55	LOC391016 (retired record) (GeneID 391016)	1	0.936	0.6	1.41	inactive
56	FGF21 (GeneID 26291)	1	0.511	0.442	0.00409	inactive
57	ST6GALNAC2 (GeneID 10610)	1	0.099	0.141	0.387	inactive
58	NPR1 (GeneID 4881)	1	-0.636	0.397	-0.445	inactive
59	DNAJA1 (GeneID 3301)	1	0.66	0.511	0.633	inactive
60	KCNQ1DN (GeneID 55539)	1	0.187	1.26	-0.0225	inactive
61	TSEN34 (GeneID 79042)	1	0.569	0.549	1.24	inactive
62	GNL1 (GeneID 2794)	1	-0.711	-0.465	-1.21	inactive
63	SETDB1 (GeneID 9869)	1	1.33	0.734	0.274	inactive
64	LOC441078 (retired record) (GeneID 441078)	1	0.0254	-0.0459	-0.198	inactive
65	GLYR1 (GeneID 84656)	1	0.278	0.0919	0.687	inactive
66	RYR2 (GeneID 6262)	1	-0.425	-0.823	-0.704	inactive
67	GALNT6 (GeneID 11226)	1	-0.589	1.57	-0.142	inactive
68	AGBL3 (GeneID 340351)	1	-0.277	-0.0975	0.0229	inactive
